Data published in patent US20210032312A1.
Positions count from the first letter of the chain named. These are yes or no findings as the source states them, for the method shown. Some binding calls cover weakened binding; strength is not graded here.

Chains of the proteins cited; added tags and fusions are not shown. Residues count along the entry.
UniProt P01732, residues 22-182: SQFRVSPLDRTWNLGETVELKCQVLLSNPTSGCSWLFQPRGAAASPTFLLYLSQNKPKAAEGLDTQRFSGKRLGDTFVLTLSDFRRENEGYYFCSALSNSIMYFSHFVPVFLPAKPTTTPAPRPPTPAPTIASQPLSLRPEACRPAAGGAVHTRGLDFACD

B1: P282AR9P1356_A10 (designed binder)
chain: LPAPKNLVVSRVTEDSARLSWHTATNSFDSFLIQYQESEKVGEAIVLTVPGSERSYDLTGLKPGTEYTVSIYGVDVDYNPTGRPVSSNPLSAIFTT
B2: P282BR9P1357_C10 (designed binder)
chain: LPAPKNLVVSRVTEDSARLSWWSNDNRPIFDSFLIQYQESEKVGEAIVLTVPGSERSYDLTGLKPGTEYTVSIYGVDVKWEGNRPVASNPLSAIFTT
B3: P283BR9P1363_E6 (designed binder)
chain: B2 chain with W22Y, S23A, N24R, D25K, N26F, R27I, P28S, I29P
B4: P283BR9P1363_F2 (designed binder)
chain: LPAPKNLVVSRVTEDSARLSWYRPDNRAGAFDSFLIQYQESEKVGEAIVLTVPGSERSYDLTGLKPGTEYTVSIYGVDVKYDIDSRPISSNPLSAIFTT
B5: P283BR9P1363_F4 (designed binder)
chain: B2 chain with W22E, S23R, N24I, D25V, N26Q, R27T, I29H
B6: P283BR9P1363_F6 (designed binder)
chain: LPAPKNLVVSRVTEDSARLSWPEEAVTATSFDSFLIQYQESEKVGEAIVLTVPGSERSYDLTGLKPGTEYTVSIYGVDVKWEGNRPVASNPLSAIFTT
B7: P283BR9P1363_G2 (designed binder)
chain: B2 chain with W22P, S23K, D25Q, N26T, R27N, P28R, I29H
B8: P283BR9P1363_G5 (designed binder)
chain: B6 chain with P22Y, E23R, E24A, A25T, V26T, T27P, T29P, S30H
B9: P283BR9P1363_G7 (designed binder)
chain: B2 chain with W22S, S23A, N24K, D25K, N26F, R27P, P28R, I29H
B10: P283DR9P1364_A4 (designed binder)
chain: LPAPKNLVVSRVTEDSARLSWTAPDAAFDSFYIAYPEWPVQGEAIVLTVPGSERSYDLTGLKPGTEYFVIIYGVKGGDWSEPLSAIFTT
B11: P283DR9P1364_A7 (designed binder)
chain: B10 chain with Y32R, Q41R, E43D, F68W, Y72Q, D78T, W79D, E81F
B12: P283DR9P1364_B1 (designed binder)
chain: B10 chain with A34T, W38I, V40L, Q41G, I70V, D78L, W79L, E81S
B13: P282BR9P1357_C4 (designed binder)
chain: B6 chain with K5N, E23F, E24V, A25S, V26Q, T27N, A28K, T29P, S30H
B14: P283DR9P1364_B11 (designed binder)
chain: B10 chain with A34S, P39E, V40Q, Q41L, I70V, D78A, W79L, E81A
B15: P283DR9P1364_B4 (designed binder)
chain: B10 chain with Y32A, A34S, V40P, Q41P, F68W, Y72L, W79Q, E81W
B16: P283DR9P1364_C10 (designed binder)
chain: B10 chain with Y32Q, V40K, Q41D, F68A, I70F, Y72W, D78V, W79Y, E81N
B17: P283DR9P1364_D11 (designed binder)
chain: B10 chain with Y32D, V40P, Q41K, I70V, D78I, W79H, E81A
B18: P283DR9P1364_D8 (designed binder)
chain: B10 chain with Y32Q, W38T, V40I, Y72H, D78I, W79T, E81F
B19: P283DR9P1364_D9 (designed binder)
chain: B10 chain with Y32G, A34S, V40P, Q41L, F68W, Y72F, D78E, W79R, E81W
B20: P283DR9P1364_E3 (designed binder)
chain: B10 chain with Y32G, W38L, V40I, Q41G, Y72R, D78T, W79L, E81P
B21: P283DR9P1364_E5 (designed binder)
chain: B10 chain with Y32W, A34S, Q41P, F68W, Y72Q, D78K, W79L, E81W
B22: P283DR9P1364_E7 (designed binder)
chain: B10 chain with Y32N, Q41R, F68W, W79R, E81N
B23: P283DR9P1364_E8 (designed binder)
chain: B10 chain with Y32S, Q41H, D78V, W79L
B24: P282BR9P1357_D12 (designed binder)
chain: LPAPKNLVVSRVTEDSARLSWGQYITAFSFDSFLIQYQESEKVGEAIVLTVPGSERSYDLTGLKPGTEYTVSIYGVDVAWFQGKPTWSNPLSAIFTT
B25: P283DR9P1364_E9 (designed binder)
chain: B10 chain with Y32D, V40T, Q41K, I70V, Y72N, D78W, W79R, E81F
B26: P283DR9P1364_F2 (designed binder)
chain: B10 chain with Y32W, Q41P, Y72Q, D78F, W79G, E81F
B27: P283DR9P1364_F6 (designed binder)
chain: LPAPKNLVVSRVTEDSARLSWTAPDAAFDSFTIAYPEREQDKWGEAIVLTVPGSERSYDLTGLKPGTEYWVIIQGVKGGRPSTPLSAILTT
B28: P283DR9P1364_F8 (designed binder)
chain: LPAPKNLVVSRVTEDSARLSWTAPDAAFDSFAIAYPEWPPGEAIVLTVPGSERSYDLTGLKPGTEYFVIIYGVKGGWTSPPLSAIFTT
B29: P283DR9P1364_G10 (designed binder)
chain: B10 chain with Y32S, V40G, Q41S, I70V, Y72F, D78S, W79Q, E81W
B30: P283DR9P1364_G9 (designed binder)
chain: B10 chain with Y32G, A34W, Q41G, F68W, I70N, Y72S, D78E, W79Y, E81F
B31: P283DR9P1364_H1 (designed binder)
chain: B10 chain with Y32Q, A34S, Q41H, F68W, Y72W, D78R, W79Q, E81W
B32: P283DR9P1364_H11 (designed binder)
chain: B10 chain with Y32D, W38L, V40L, Q41G, Y72W, W79R
B33: P283DR9P1364_H6 (designed binder)
chain: B10 chain with Y32I, W38T, Q41R, Y72I, D78Q, W79E, E81F
B34: P283DR9P1364_H9 (designed binder)
chain: LPAPKNLVVSRVTEDSARLSWTAPDAAFDSFSISYIEYPEIPGGEAIVLTVPGSERSYDLTGLKPGTEYWVPIWGVKGGIQSWPLSAIFTT

Target: recombinant human CD8 alpha fused to Fc fragment of human IgG1 (human) (UniProt P01732)
Experiment: ELISA, biotinylated CD8W7 or CD8W13

Binder | binding
B1 | binds
B2 | binds
B3 | binds
B4 | binds
B5 | binds
B6 | binds
B7 | binds
B8 | binds
B9 | binds
B10 | binds
B11 | binds
B12 | binds
B13 | binds
B14 | binds
B15 | binds
B16 | binds
B17 | binds

Binder | binding
B18 | binds
B19 | binds
B20 | binds
B21 | binds
B22 | binds
B23 | binds
B24 | binds
B25 | binds
B26 | binds
B27 | binds
B28 | binds
B29 | binds
B30 | binds
B31 | binds
B32 | binds
B33 | binds
B34 | binds
